The record followed here is article PMC7819943, “Rice protein-binding microarrays: a tool to detect cis-acting elements near promoter regions in rice”.

The list shows a part of the results.

The target of this test is T1, OsSMF1 (Oryza sativa, UniProt Q6ZLB0 1-436).
T1 sequence: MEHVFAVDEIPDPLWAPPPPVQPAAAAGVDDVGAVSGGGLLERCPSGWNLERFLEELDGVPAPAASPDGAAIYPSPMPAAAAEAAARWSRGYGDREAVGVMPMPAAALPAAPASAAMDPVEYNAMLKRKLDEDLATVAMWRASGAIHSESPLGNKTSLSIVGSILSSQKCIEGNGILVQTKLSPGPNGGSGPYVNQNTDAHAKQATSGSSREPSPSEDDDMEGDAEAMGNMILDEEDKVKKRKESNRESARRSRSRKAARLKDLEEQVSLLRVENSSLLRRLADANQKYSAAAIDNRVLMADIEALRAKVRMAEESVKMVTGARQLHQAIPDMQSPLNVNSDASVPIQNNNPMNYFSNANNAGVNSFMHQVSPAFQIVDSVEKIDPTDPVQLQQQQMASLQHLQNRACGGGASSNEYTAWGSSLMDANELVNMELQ
Description: protein-binding microarray (RPBM); PBS, 2% BSA, 51.3 ng/ul salmon testes DNA, 50 uM zinc acetate, 200 nM TF, 25 C, 1 h; high values mean tight binding. As to conditions: protein: recombinant; tags: N-terminal polyhistidine and DsRed monomer fusion (pET32a); chain copies: 2; label: CyDye5-dUTP incorporated in the synthesized complementary strand; 3' TTTTT single-stranded linker to array surface; dsDNA, one strand shown. The essentials: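 Transcription factors were each fused at the N-terminus to a polyhistidine tag plus DsRed and expressed in E. coli BL21-CodonPlus before Ni–NTA purification. Binding to a double-stranded custom Agilent array was carried out with 200 nM protein at 25 °C for 1 h in PBS, 2% BSA, salmon testes DNA and 50 µM zinc acetate. The binding signal is per-feature fluorescence intensity, in arbitrary units, on an Axon 4000B scanner.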
As to “TGTTTCGGCCTGTTAGCCTACAACGACGTGGGCTCGCGACCGGAGTCACCTAGTGCAG”, the binding signal was 3590 fluorescence intensity (a.u.).

As to “CAAGTCATGTCACCACTGCTTTAGCGCCACCGACGTGGTTCGGAGTCACCTAGTGCAG”, the binding signal was 4520 fluorescence intensity (a.u.).

Turning to “ATCAGCAAGAATGCGAGGGAGACGGCGGAGAGCTCGGGAACGGAGTCACCTAGTGCAG”, the binding signal is 43000 fluorescence intensity (a.u.).

In the case of “GGCACCGTAATAAACCCAACGTCCTAGCTGGAACAAATTTCGGAGTCACCTAGTGCAG”, the binding signal was 4140 fluorescence intensity (a.u.).

For “TTTGTTATAATTTTAATTTACACGTTGCAACGCACGGATACGGAGTCACCTAGTGCAG”, the binding signal is 5780 fluorescence intensity (a.u.).

For the sequence “GCATGTCATGCTAAGACATATGACATACCACCAATCCTTGCGGAGTCACCTAGTGCAG”, the binding signal is 3900 fluorescence intensity (a.u.).

For the sequence “TAGTCTTTTCCATGTCATGTGATCATGTGTGGAGTTGATTCGGAGTCACCTAGTGCAG”, the binding signal was 5820 fluorescence intensity (a.u.).

Take “CACTCAAAATTGTCACGGTCTCAACTCCCTGAGTATCATGCGGAGTCACCTAGTGCAG”: the binding signal was 3340 fluorescence intensity (a.u.).

Turning to “CTATTTGTGATTTAGCGGAACGTGCTACCGGAACTCCCATCGGAGTCACCTAGTGCAG”, the binding signal was 22400 fluorescence intensity (a.u.).

As for “CCCGTGCGGCGCGCACACGTCACTCTACCTAGCTTACACCCGGAGTCACCTAGTGCAG”, the binding signal was 16400 fluorescence intensity (a.u.).

Take “GAGGGAGAGAGAGACAGGAGAGGAGAGGAGAGAGCACGATCGGAGTCACCTAGTGCAG”: the binding signal was 3460 fluorescence intensity (a.u.).

Take “GATCAATCATCCTTGTTCACAAGGCTGCCTGACATGGATGCGGAGTCACCTAGTGCAG”: the binding signal was 3730 fluorescence intensity (a.u.).

For the sequence “CCTCCTCCTGCCTGCCACTTGGGGCGCAGTTGCTGCTCCTCGGAGTCACCTAGTGCAG”, the binding signal is 32400 fluorescence intensity (a.u.).

Take “CACAGCCTTAATGGACACACACGCTTACTCATCTAAACGTCGGAGTCACCTAGTGCAG”: the binding signal was 3570 fluorescence intensity (a.u.).

With “ACGATGCCACGGCCGCGCGCCACCGTCCTCCACGTCGTCGCGGAGTCACCTAGTGCAG”, the binding signal was 10200 fluorescence intensity (a.u.).

For “AGCCTAGCCTGAGATCTCCGGGCTCCGGAGGATGGCCCAGCGGAGTCACCTAGTGCAG”, the binding signal is 3450 fluorescence intensity (a.u.).

With “AAACGCGGCTAGTCGTTCGAGTCTGTGTACGTGGCACTGTCGGAGTCACCTAGTGCAG”, the binding signal was 12000 fluorescence intensity (a.u.).

With “AGACTGCTAGTCTGCTACTGCTCAGTCATCATCGTTTCAGCGGAGTCACCTAGTGCAG”, the binding signal is 5250 fluorescence intensity (a.u.).

For the sequence “CGCTAAAGCCACGTCACGTCACCCTCTCCGTCGTCCAGGCCGGAGTCACCTAGTGCAG”, the binding signal is 30700 fluorescence intensity (a.u.).

Take “GCATATATGTGGCATGCCACGTAGGATTTCGGAGAGGTCGCGGAGTCACCTAGTGCAG”: the binding signal is 16000 fluorescence intensity (a.u.).

As for “GTTAGTTGGCTGCGGCCATCGCAATTAGCCAAATGGTCGTCGGAGTCACCTAGTGCAG”, the binding signal was 5130 fluorescence intensity (a.u.).

As to “TATTTGAGAAAGTAGCTTATGACATGGCAAGATGATGCAACGGAGTCACCTAGTGCAG”, the binding signal was 5560 fluorescence intensity (a.u.).

As for “CAATATACCTAGAAAGAAATACAAATTGATTTAAGAAATGCGGAGTCACCTAGTGCAG”, the binding signal is 29500 fluorescence intensity (a.u.).

As for “AGAGCTGTTATTATTGCGTGACGAGGCATATTCTAGACCTCGGAGTCACCTAGTGCAG”, the binding signal was 6790 fluorescence intensity (a.u.).

As for “TGATAATGCAGTAGTAAGTCCAAATCACATGCATGGGCCACGGAGTCACCTAGTGCAG”, the binding signal was 18300 fluorescence intensity (a.u.).

In the case of “ACTAATCGCACTATACTGTACGTCACAACATTGTATCAATCGGAGTCACCTAGTGCAG”, the binding signal is 3400 fluorescence intensity (a.u.).

For “CCGCTCCTCCGCCTCCATTTCCACGACTGCTTCGTCAGGGCGGAGTCACCTAGTGCAG”, the binding signal was 4950 fluorescence intensity (a.u.).

Regarding “CCCTACTTAAGCATGAAAAGTAAGCTTACGATCTGAGCCGCGGAGTCACCTAGTGCAG”, the binding signal was 3860 fluorescence intensity (a.u.).

As for “TGTTAGCTGATTAGGATGCCACGTCAGCTAAACCAGCTATCGGAGTCACCTAGTGCAG”, the binding signal was 23700 fluorescence intensity (a.u.).

With “AAATGAAATTCGGAGGCACAATCATCAATTGTCATTGACTCGGAGTCACCTAGTGCAG”, the binding signal was 3720 fluorescence intensity (a.u.).

Turning to “TCCGGTGATCTCCGCGTGTCAGCATTCAGCAACACAGCGACGGAGTCACCTAGTGCAG”, the binding signal is 5630 fluorescence intensity (a.u.).

“ATAAAATTGCCACGTAAGTAATTTTATCAGACTAACCAACCGGAGTCACCTAGTGCAG”: the binding signal was 19200 fluorescence intensity (a.u.).

As for “GGATCAAATTGCCACGTAAGCGCCCACATCGGTGCCATGTCGGAGTCACCTAGTGCAG”, the binding signal was 31700 fluorescence intensity (a.u.).

For the sequence “TTTACATGTTCTTGATGACTCTGGCGTTTCCTGCTTTCGACGGAGTCACCTAGTGCAG”, the binding signal is 3920 fluorescence intensity (a.u.).

Consider “GAGGGTTTTAATTACTCACTGACATGTAGGGTCACGGGGTCGGAGTCACCTAGTGCAG”, for which the binding signal was 4390 fluorescence intensity (a.u.).

On to “AAAGTACCAACGCTCTGGCCCACACGTCACTGGTCGGTTGCGGAGTCACCTAGTGCAG”, for which the binding signal is 11900 fluorescence intensity (a.u.).

Take “TTCTCCTAACATCGGTAATTCACTGTGCCAGTGTTATCGCCGGAGTCACCTAGTGCAG”: the binding signal was 20900 fluorescence intensity (a.u.).

As for “CTTAGACTTTATCCGCCAGCTCATCAGACCCATAAGCCCACGGAGTCACCTAGTGCAG”, the binding signal was 11700 fluorescence intensity (a.u.).

With “AGGCCGGGGAAGGAGTTCGTGCTCCATTTGTGCGTCACCCCGGAGTCACCTAGTGCAG”, the binding signal is 4690 fluorescence intensity (a.u.).

“TTGAAGTTACACTCACTGTACAACGGAGGCCCTTCCCCTTCGGAGTCACCTAGTGCAG”: the binding signal is 3140 fluorescence intensity (a.u.).

Take “TTTGTACTGCCAACTGTGCATAGTATGACAGCTACTCTTGCGGAGTCACCTAGTGCAG”: the binding signal was 5800 fluorescence intensity (a.u.).

Regarding “CAAATTGTCACATAAGCGCCACGTCATTGCCACAGGGCAGCGGAGTCACCTAGTGCAG”, the binding signal is 35400 fluorescence intensity (a.u.).

Take “CTACCCTATGAAGAAGGGTTTTGCTTCTTGCCTTTTCATGCGGAGTCACCTAGTGCAG”: the binding signal is 16400 fluorescence intensity (a.u.).

For “TCACATTGTACAATCACCTAGAAATTTGCTCACTTCCATGCGGAGTCACCTAGTGCAG”, the binding signal is 3360 fluorescence intensity (a.u.).

In the case of “CAGTATCCTAATATTGTAGTAGACACCTCAGTGGAGCCTGCGGAGTCACCTAGTGCAG”, the binding signal was 3300 fluorescence intensity (a.u.).

On to “GACGCGGCGTCGGCGCCCACCGCGGACGGCGCGGCGGCAGCGGAGTCACCTAGTGCAG”, for which the binding signal was 31100 fluorescence intensity (a.u.).

For the sequence “GTGGCTTACTGGCAATTGTGCACATCATCAACAGTGTGGACGGAGTCACCTAGTGCAG”, the binding signal was 4140 fluorescence intensity (a.u.).

As for “ACACTCCAGCATAGTTAATGTTTACTGCTAGGAGGATTCACGGAGTCACCTAGTGCAG”, the binding signal is 25600 fluorescence intensity (a.u.).

Take “CCATAATGGTCAAACGTGACTCCTCCTCATCTTCTTCCTCCGGAGTCACCTAGTGCAG”: the binding signal is 5970 fluorescence intensity (a.u.).

Turning to “AGTAAAAGGAGCCACGTAGGCGCCACGTCATCCAAAACCACGGAGTCACCTAGTGCAG”, the binding signal was 47600 fluorescence intensity (a.u.).

For “CAACATCCCTGGCGTCGCCGCGTGTACGCAGCCGCCATCACGGAGTCACCTAGTGCAG”, the binding signal was 3930 fluorescence intensity (a.u.).

Take “TGTGCCCAGTGACCATATGCTGATGCAGGCTATAAACTTTCGGAGTCACCTAGTGCAG”: the binding signal is 4290 fluorescence intensity (a.u.).

As for “CAGAGGCGGCGACGACGCGGCGGGCGATGACGCAGAAGGCCGGAGTCACCTAGTGCAG”, the binding signal was 3480 fluorescence intensity (a.u.).

In the case of “GGGTCGGGCCATGTATGCGCTGTAGTCAACGGCCCGTACGCGGAGTCACCTAGTGCAG”, the binding signal was 3140 fluorescence intensity (a.u.).
